# Measurements reported in PubChem BioAssay AID1259424 (University of Nebraska Medical Center, 2018)
# Aim: 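Find knockdowns that reproduce the expression shifts seen after KSR1 loss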 (primary screen)
# System: human HCT116 colon cancer cells
# Reagent: siRNA pool against human genes, 50 nM
# Read-out: 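Log2 levels of six mRNAs (branched-DNA multiplex), adjusted by two reference genes and the non-targeting median, then scored against the average KSR1 knockdown pattern as Pearson r and euclidean distance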
# Reading the numbers: mean correlation with KSR1 profile and KSR1 correlation: higher = expression change more like KSR1 knockdown; mean distance from KSR1 profile: higher = expression change less like KSR1 knockdown
# In all, the deposit lists about 14,000 reagents; this is a part drawn at random. 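Higher correlation or smaller distance means closer resemblance to KSR1 loss; control wells, including KSR1 knockdowns, recur on many plates.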 No sequences are given here. Not stated in the record: the time to read-out.
gene symbol,mean correlation with KSR1 profile,mean distance from KSR1 profile,"KSR1 correlation, replicate 1","KSR1 correlation, replicate 2","KSR1 correlation, replicate 3"
TAAR6,0.71,1.53,0.706,0.805,0.634
BCKDHA,0.506,3.92,0.307,0.455,0.579
FAM216A,0.402,1.69,0.126,0.118,0.325
OS9,0.216,1.45,0.262,0.108,0.333
SHROOM3,-0.127,2.43,-0.121,0.014,-0.0239
NIN,-0.272,2.71,-0.374,-0.243,-0.0499
RGS8,-0.422,3.57,-0.352,-0.339,-0.585
LAGE3,-0.0341,2.55,-0.0187,-0.0693,-0.0646
CCK,0.128,1.31,0.189,-0.05,0.167
KRTAP17-1,0.71,2.67,0.574,0.691,0.729
SNX10,-0.0698,4.68,-0.165,-0.276,-0.22

3 successive entries already listed:
gene symbol,mean correlation with KSR1 profile,mean distance from KSR1 profile,"KSR1 correlation, replicate 1","KSR1 correlation, replicate 2","KSR1 correlation, replicate 3"
NIN,-0.272,2.71,-0.374,-0.243,-0.0499
RGS8,-0.422,3.57,-0.352,-0.339,-0.585
LAGE3,-0.0341,2.55,-0.0187,-0.0693,-0.0646

Continued:
gene symbol,mean correlation with KSR1 profile,mean distance from KSR1 profile,"KSR1 correlation, replicate 1","KSR1 correlation, replicate 2","KSR1 correlation, replicate 3"
BLVRA,0.646,1.23,0.059,0.937,0.571
PCSK6,0.0318,2.52,0.17,-0.122,-0.0115
PHLPP1,0.505,1.93,0.397,0.632,0.406
EDRF1,-0.109,2.04,0.155,-0.323,-0.193
HDHD5,0.426,2.25,0.275,0.281,0.178
SUSD5,-0.325,2.4,-0.149,-0.433,-0.505
BIN1,0.0781,2.35,0.139,-0.0873,0.0508
NAA38,0.677,1.13,0.569,0.426,0.713
TRPM6,0.586,1.1,0.488,0.613,0.0358
